In US20100196365A1, “USE OF IMIDAZOQUINOLINES FOR THE TREATMENT OF EGFR DEPENDENT DISEASES OR DISEASES THAT HAVE ACQUIRED RESISTANCE TO AGENTS THAT TARGET EGFR FAMILY MEMBERS” (priority 2007, published 2010):

System: NCI-H358 cell line
Assay: proliferation assay (methylene blue assay) with NCI-H358 tumor cells
Assay type: cell-based
Details: Homo sapiens, read-out: Growth Inhibitory 50 (GI50)

GI50: 542 nM
SMILES: COc1cc2ncnc(Nc3ccc(F)c(Cl)c3)c2cc1OCCCN1CCOCC1 [gefitinib, reference compound]
